In patent US20230265187A1:
No constants are given. Whether binding was seen depends on the method and setting. Some results given as binding are weak or reduced against the parent protein; the word gives no strength.

Target: His-tagged cynomolgus monkey TIGIT (Acro Biosystems #TIT-05223) (cynomolgus monkey)
Test: summary of the data of Tables 3-5

binding: binds
B1: 43586p1.2.F6 (scFv, V domains shown)
VH: EVQLLESGEGLVQPGGSLRLSCAASGFTFTSYLMSWVRQAPGKGLEWVSTITWDGDRTYYADSVKGRFTISRDNSKNTLYLQMNSLRVGDTAVYYCAKHWTVFQYGMDVWGQGTTVTVSS
VL: QSVLTQPASASGTPGQRVTISCSGTISNIETKYVSWYQQLPGTAPKLLIYGNHQRPSGVPDRFSGSKSGTSASLAISGLQSEDEADYYCASWENDLKSWVFGGGTKLTVL
